Results reported in paper PMC10907362.

T1: Flag-USP40 (in HLMVECs) (human) (UniProt Q9NVE5)
T1 sequence: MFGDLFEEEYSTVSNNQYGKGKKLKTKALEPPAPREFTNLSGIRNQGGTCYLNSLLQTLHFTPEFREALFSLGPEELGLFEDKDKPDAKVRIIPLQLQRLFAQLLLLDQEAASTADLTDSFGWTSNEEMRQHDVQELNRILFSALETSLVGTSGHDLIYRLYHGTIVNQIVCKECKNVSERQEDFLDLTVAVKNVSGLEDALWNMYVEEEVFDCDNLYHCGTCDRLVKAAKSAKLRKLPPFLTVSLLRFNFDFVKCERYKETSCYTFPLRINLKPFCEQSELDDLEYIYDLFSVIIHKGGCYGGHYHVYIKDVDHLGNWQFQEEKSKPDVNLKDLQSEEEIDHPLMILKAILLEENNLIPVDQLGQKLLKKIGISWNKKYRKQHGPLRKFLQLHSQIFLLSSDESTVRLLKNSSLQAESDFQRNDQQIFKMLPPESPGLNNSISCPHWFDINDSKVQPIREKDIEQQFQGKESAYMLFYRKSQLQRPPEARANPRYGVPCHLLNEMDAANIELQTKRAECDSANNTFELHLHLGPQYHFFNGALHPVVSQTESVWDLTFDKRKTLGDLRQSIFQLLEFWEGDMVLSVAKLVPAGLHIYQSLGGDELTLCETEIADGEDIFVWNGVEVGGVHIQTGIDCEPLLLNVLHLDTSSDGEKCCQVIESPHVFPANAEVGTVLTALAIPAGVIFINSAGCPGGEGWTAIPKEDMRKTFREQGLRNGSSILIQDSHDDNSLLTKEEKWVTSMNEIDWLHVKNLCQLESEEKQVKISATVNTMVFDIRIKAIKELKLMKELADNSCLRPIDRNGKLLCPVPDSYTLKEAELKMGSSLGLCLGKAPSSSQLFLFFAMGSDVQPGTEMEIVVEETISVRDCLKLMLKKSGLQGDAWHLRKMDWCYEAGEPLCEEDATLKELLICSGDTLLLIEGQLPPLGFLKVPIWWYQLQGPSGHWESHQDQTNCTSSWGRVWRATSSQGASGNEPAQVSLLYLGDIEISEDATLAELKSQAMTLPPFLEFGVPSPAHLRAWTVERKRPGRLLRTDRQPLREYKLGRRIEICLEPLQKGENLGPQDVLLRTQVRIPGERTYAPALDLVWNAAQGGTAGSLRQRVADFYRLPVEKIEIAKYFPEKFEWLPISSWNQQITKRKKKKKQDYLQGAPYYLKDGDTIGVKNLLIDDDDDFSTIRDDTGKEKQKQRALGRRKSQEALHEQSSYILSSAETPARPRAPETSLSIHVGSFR


Molecular target: T1, Flag-USP40 (in HLMVECs) (human)
Assay: affinity purification with mass spectrometry; Flag-USP40 immunoprecipitated from transfected HLMVECs with FLAG-M2 affinity gel; eluted under reducing conditions, SDS-PAGE, Coomassie, bands excised, in-gel trypsin digestion, LC-MS

| binding | Binder |
| --- | --- |
| binds | Erythrocyte band 7 integral membrane protein (protein, UniProt P27105 1-288) MAEKRHTRDSEAQRLPDSFKDSPSKGLGPCGWILVAFSFLFTVITFPISIWMCIKIIKEYERAIIFRLGRILQGGAKGPGLFFILPCTDSFIKVDMRTISFDIPPQEILTKDSVTISVDGVVYYRVQNATLAVANITNADSATRLLAQTTLRNVLGTKNLSQILSDREEIAHNMQSTLDDATDAWGIKVERVEIKDVKLPVQLQRAMAAEAEASREARAKVIAAEGEMNASRALKEASMVITESPAALQLRYLQTLTTIAAEKNSTIVFPLPIDMLQGIIGAKHSHLG |
| binds | Junction plakoglobin (protein, UniProt P14923 1-745) MEVMNLMEQPIKVTEWQQTYTYDSGIHSGANTCVPSVSSKGIMEEDEACGRQYTLKKTTTYTQGVPPSQGDLEYQMSTTARAKRVREAMCPGVSGEDSSLLLATQVEGQATNLQRLAEPSQLLKSAIVHLINYQDDAELATRALPELTKLLNDEDPVVVTKAAMIVNQLSKKEASRRALMGSPQLVAAVVRTMQNTSDLDTARCTTSILHNLSHHREGLLAIFKSGGIPALVRMLSSPVESVLFYAITTLHNLLLYQEGAKMAVRLADGLQKMVPLLNKNNPKFLAITTDCLQLLAYGNQESKLIILANGGPQALVQIMRNYSYEKLLWTTSRVLKVLSVCPSNKPAIVEAGGMQALGKHLTSNSPRLVQNCLWTLRNLSDVATKQEGLESVLKILVNQLSVDDVNVLTCATGTLSNLTCNNSKNKTLVTQNSGVEALIHAILRAGDKDDITEPAVCALRHLTSRHPEAEMAQNSVRLNYGIPAIVKLLNQPNQWPLVKATIGLIRNLALCPANHAPLQEAAVIPRLVQLLVKAHQDAQRHVAAGTQQPYTDGVRMEEIVEGCTGALHILARDPMNRMEIFRLNTIPLFVQLLYSSVENIQRVAAGVLCELAQDKEAADAIDAEGASAPLMELLHSRNEGTATYAAAVLFRISEDKNPDYRKRVSVELTNSLFKHDPAAWEAAQSMIPINEPYGDDMDATYRPMYSSDVPLDPLEMHMDMDGDYPIDTYSDGLRPPYPTADHMLA |
| binds | Isoform 4 of Ankycorbin (protein, UniProt Q9P0K7-4 1-951) MKSLKAKFRKSDTNEWNKNDDRLLQAVENGDAEKVASLLGKKGASATKHDSEGKTAFHLAAAKGHVECLRVMITHGVDVTAQDTTGHSALHLAAKNSHHECIRKLLQSKCPAESVDSSGKTALHYAAAQGCLQAVQILCEHKSPINLKDLDGNIPLLLAVQNGHSEICHFLLDHGADVNSRNKSGRTALMLACEIGSSNAVEALIKKGADLNLVDSLGYNALHYSKLSENAGIQSLLLSKISQDADLKTPTKPKQLSDVSSPRSITSTPLSGKESVFFAEPPFKAEISSIRENKDRLSDSTTGADSLLDISSEADQQDLLSLLQAKVASLTLHNKELQDKLQAKSPKEAEADLSFDSYHSTQTDLGPSLGKPGETSPPDSKSSPSVLIHSLGKSTTDNDVRIQQLQEILQDLQKRLESSEAERKQLQVELQSRRAELVCLNNTEISENSSDLSQKLKETQSKYEEAMKEVLSVQKQMKLGLVSPESMDNYSHFHELRVTEEEINVLKQDLQNALEESERNKEKVRELEEKLVEREKGTVIKPPVEEYEEMKSSYCSVIENMNKEKAFLFEKYQEAQEEIMKLKDTLKSQMTQEASDEAEDMKEAMNRMIDELNKQVSELSQLYKEAQAELEDYRKRKSLEDVTAEYIHKAEHEKLMQLTNVSRAKAEDALSEMKSQYSKVLNELTQLKQLVDAQKENSVSITEHLQVITTLRTAAKEMEEKISNLKEHLASKEVEVAKLEKQLLEEKAAMTDAMVPRSSYEKLQSSLESEVSVLASKLKESVKEKEKVHSEVVQIRSEVSQVKREKENIQTLLKSKEQEVNELLQKFQQAQEELAEMKRYAESSSKLEEDKDKKINEMSKEVTKLKEALNSLSQLSYSTSSSKRQSQQLEALQQQVKQLQNQLAECKKQHQEVISVYRMHLLYAVQGQMDEDVQKVLKQILTMCKNQSQKK |
| binds | Unconventional myosin-Id (protein, UniProt O94832 1-1006) MAEQESLEFGKADFVLMDTVSMPEFMANLRLRFEKGRIYTFIGEVVVSVNPYKLLNIYGRDTIEQYKGRELYERPPHLFAIADAAYKAMKRRSKDTCIVISGESGAGKTEASKYIMQYIAAITNPSQRAEVERVKNMLLKSNCVLEAFGNAKTNRNDNSSRFGKYMDINFDFKGDPIGGHINNYLLEKSRVIVQQPGERSFHSFYQLLQGGSEQMLRSLHLQKSLSSYNYIHVGAQLKSSINDAAEFRVVADAMKVIGFKPEEIQTVYKILAAILHLGNLKFVVDGDTPLIENGKVVSIIAELLSTKTDMVEKALLYRTVATGRDIIDKQHTEQEASYGRDAFAKAIYERLFCWIVTRINDIIEVKNYDTTIHGKNTVIGVLDIYGFEIFDNNSFEQFCINYCNEKLQQLFIQLVLKQEQEEYQREGIPWKHIDYFNNQIIVDLVEQQHKGIIAILDDACMNVGKVTDEMFLEALNSKLGKHAHFSSRKLCASDKILEFDRDFRIRHYAGDVVYSVIGFIDKNKDTLFQDFKRLMYNSSNPVLKNMWPEGKLSITEVTKRPLTAATLFKNSMIALVDNLASKEPYYVRCIKPNDKKSPQIFDDERCRHQVEYLGLLENVRVRRAGFAFRQTYEKFLHRYKMISEFTWPNHDLPSDKEAVKKLIERCGFQDDVAYGKTKIFIRTPRTLFTLEELRAQMLIRIVLFLQKVWRGTLARMRYKRTKAALTIIRYYRRYKVKSYIHEVARRFHGVKTMRDYGKHVKWPSPPKVLRRFEEALQTIFNRWRASQLIKSIPASDLPQVRAKVAAVEMLKGQRADLGLQRAWEGNYLASKPDTPQTSGTFVPVANELKRKDKYMNVLFSCHVRKVNRFSKVEDRAIFVTDRHLYKMDPTKQYKVMKTIPLYNLTGLSVSNGKDQLVVFHTKDNKDLIVCLFSKQPTHESRIGELVGVLVNHFKSEKRHLQVNVTNPVQCSLHGKKCTVSVETRLNQPQPDFTKNRSGFILSVPGN |
| binds | Non-POU domain-containing octamer-binding protein (protein, UniProt Q15233 1-471) MQSNKTFNLEKQNHTPRKHHQHHHQQQHHQQQQQQPPPPPIPANGQQASSQNEGLTIDLKNFRKPGEKTFTQRSRLFVGNLPPDITEEEMRKLFEKYGKAGEVFIHKDKGFGFIRLETRTLAEIAKVELDNMPLRGKQLRVRFACHSASLTVRNLPQYVSNELLEEAFSVFGQVERAVVIVDDRGRPSGKGIVEFSGKPAARKALDRCSEGSFLLTTFPRPVTVEPMDQLDDEEGLPEKLVIKNQQFHKEREQPPRFAQPGSFEYEYAMRWKALIEMEKQQQDQVDRNIKEAREKLEMEMEAARHEHQVMLMRQDLMRRQEELRRMEELHNQEVQKRKQLELRQEEERRRREEEMRRQQEEMMRRQQEGFKGTFPDAREQEIRMGQMAMGGAMGINNRGAMPPAPVPAGTPAPPGPATMMPDGTLGLTPPTTERFGQAATMEGIGAIGGTPPAFNRAAPGAEFAPNKRRRY |
| binds | Isoform 2 of Synaptopodin (protein, UniProt Q8N3V7-2 1-903) MEGYSEEASLLRHLEKVASEEEEVPLVVYLKENAALLTANGLHLSQNREAQQSSPAPPPAEVHSPAADVNQNLASPSATLTTPTSNSSHNPPATDVNQNPPATVVPQSLPLSSIQQNSSEAQLPSNGTGPASKPSTLCADGQPQAPAEEVRCSTLLIDKVSTPATTTSTFSREATLIPSSRPPASDFMSSSLLIDIQPNTLVVSADQEMSGRAAATTPTKVYSEVHFTLAKPPSVVNRTARPFGIQAPGGTSQMERSPMLERRHFGEKAPAPQPPSLPDRSPRPQRHIMSRSPMVERRMMGQRSPASERRPLGNFTAPPTYTETLSTAPLASWVRSPPSYSVLYPSSDPKSSHLKGQAVPASKTGILEESMARRGSRKSMFTFVEKPKVTPNPDLLDLVQTADEKRRQRDQGEVGVEEEPFALGAEASNFQQEPAPRDRASPAAAEEVVPEWASCLKSPRIQAKPKPKPNQNLSEASGKGAELYARRQSRMEKYVIESSSHTPELARCPSPTMSLPSSWKYPTNAPGAFRVASRSPARTPPASLYHGYLPENGVLRPEPTKQPPYQLRPSLFVLSPIKEPAKVSPRAASPAKPSSLDLVPNLPKGALPPSPALPRPSRSSPGLYTSPGQDSLQPTAVSPPYGGDISPVSPSRAWSPRAKQAPRPSFSTRNAGIEAQDRRESLPTSPPWTPGASRPPSSLDGWVSPGPWEPGRGSSMSSPPPLPPPPPMSPSWSERSVSPLRPETEARPPSRQLQALLARNIINAARRKSASPRSAGAENPRPFSPPRAPPPPPPPPPPPPRMRSPQPARPGSAAVPGAAFAPIPRSPLPAGPSSCTSPRSPLPAPPRPFLYRRSPTDSDVSLDSEDSGAKSPGILGYNICPRGWNGSLRLKRGSLPAEASCTT |
| binds | EH domain-containing protein 4 (protein, UniProt Q9H223 1-541) MFSWMGRQAGGRERAGGADAVQTVTGGLRSLYLRKVLPLEEAYRFHEFHSPALEDADFENKPMILLVGQYSTGKTTFIRYLLEQDFPGMRIGPEPTTDSFIAVMYGETEGSTPGNALVVDPKKPFRKLSRFGNAFLNRFMCSQLPNQVLKSISVIDSPGILSGEKQRISRGYDFCQVLQWFAERVDRIILLFDAHKLDISDEFSEAIKAFRGQDDKIRVVLNKADQVDTQQLMRVYGALMWSLGKVINTPEVLRVYIGSFWAQPLQNTDNRRLFEAEAQDLFRDIQSLPQKAAVRKLNDLIKRARLAKVHAYIISYLKKEMPSVFGKENKKRELISRLPEIYIQLQREYQISAGDFPEVKAMQEQLENYDFTKFHSLKPKLIEAVDNMLSNKISPLMNLISQEETSTPTQLVQGGAFDGTTEGPFNQGYGEGAKEGADEEEWVVAKDKPVYDELFYTLSPINGKISGVNAKKEMVTSKLPNSVLGKIWKLADCDCDGMLDEEEFALAKHLIKIKLDGYELPSSLPPHLVPPSHRKSLPKAD |

Results are given in words; binding and its absence hold for the method and conditions named. In cells and extracts the contact can be indirect. A yes stands for co-enrichment or nearness to the bait. Other partners may have been found. Where a sequence is shown, tags or fusion partners need not be part of it.
